The values that follow come from paper PMC9852244.

Protein sequences, listed by entry. Tags and fused reporters are not part of them. Lines headed by an entry give the natural chain unless they say otherwise; changes in a name come on top.
UniProt Q60855: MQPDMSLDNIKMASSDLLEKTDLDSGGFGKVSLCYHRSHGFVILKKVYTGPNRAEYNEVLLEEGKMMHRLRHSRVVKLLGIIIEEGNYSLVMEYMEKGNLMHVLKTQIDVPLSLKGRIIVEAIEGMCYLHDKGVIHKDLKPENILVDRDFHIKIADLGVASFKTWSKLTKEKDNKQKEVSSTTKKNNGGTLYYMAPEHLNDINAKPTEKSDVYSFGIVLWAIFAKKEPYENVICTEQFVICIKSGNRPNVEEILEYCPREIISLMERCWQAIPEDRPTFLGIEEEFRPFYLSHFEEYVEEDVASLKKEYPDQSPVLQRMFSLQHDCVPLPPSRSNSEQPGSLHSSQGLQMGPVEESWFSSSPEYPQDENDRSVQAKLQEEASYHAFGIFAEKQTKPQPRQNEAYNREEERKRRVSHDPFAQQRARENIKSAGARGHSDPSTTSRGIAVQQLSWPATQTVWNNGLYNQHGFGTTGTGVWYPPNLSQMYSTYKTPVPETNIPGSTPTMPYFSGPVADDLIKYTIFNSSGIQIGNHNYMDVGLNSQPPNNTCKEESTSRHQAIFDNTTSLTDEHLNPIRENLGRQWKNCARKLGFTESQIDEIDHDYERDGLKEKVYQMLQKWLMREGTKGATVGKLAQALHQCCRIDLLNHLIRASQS
UniProt O14744: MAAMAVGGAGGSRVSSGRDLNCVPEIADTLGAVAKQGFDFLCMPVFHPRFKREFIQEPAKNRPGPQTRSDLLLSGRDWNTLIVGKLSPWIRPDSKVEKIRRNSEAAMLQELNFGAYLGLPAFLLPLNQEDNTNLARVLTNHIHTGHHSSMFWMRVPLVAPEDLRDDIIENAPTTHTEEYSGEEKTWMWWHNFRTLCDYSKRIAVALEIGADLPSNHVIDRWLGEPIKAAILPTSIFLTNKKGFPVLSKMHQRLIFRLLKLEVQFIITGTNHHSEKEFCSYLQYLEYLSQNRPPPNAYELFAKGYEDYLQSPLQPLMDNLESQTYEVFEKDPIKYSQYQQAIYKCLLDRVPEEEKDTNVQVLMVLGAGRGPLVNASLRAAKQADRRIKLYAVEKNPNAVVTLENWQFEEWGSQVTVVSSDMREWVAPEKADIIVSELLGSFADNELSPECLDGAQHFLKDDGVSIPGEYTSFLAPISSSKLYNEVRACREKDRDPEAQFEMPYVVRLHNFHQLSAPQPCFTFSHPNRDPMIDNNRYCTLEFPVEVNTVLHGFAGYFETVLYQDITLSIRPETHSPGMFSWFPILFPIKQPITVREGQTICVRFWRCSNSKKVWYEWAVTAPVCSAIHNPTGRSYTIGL

No constants are given. Whether binding was seen depends on the method and setting. In cells and extracts the contact can be indirect. Binding calls can cover weak binding; strength is not graded here.

The target in experiment [1] is GST-tagged dimerization deficient mutant of mRIPK1 (∆DD, RHIMmut) (mouse) (UniProt Q60855). The experiment can be described thus: pull-down; GST-pulldown on glutathione agarose (16 h, 4 °C, beads blocked with 1% BSA) from lysates of HEK293T cells co-transfected with FLAG-PRMT5 and GST-tagged bait; immunoblot; also with Nec-1 treatment of the cells. A general note: Immunoblotting shows a protein as a band on a membrane.

Experiment [2] addresses GST-RIPK1 D138N (mouse) (UniProt Q60855). Described as above.

In the case of “3xFLAG-PRMT5 (from UniProt O14744 1-637)”, the binding result in experiment [1] and in experiment [2] was “binds” in each case.
